Assay results: paper PMC6963406
These are yes or no findings as the source states them, for the method shown. Binding seen in cells or lysates may run through a third protein. Some binding calls cover weakened binding; strength is not graded here. Where a sequence is shown, tags or fusion partners need not be part of it.

T1: LEAFY (LFY), wild type, C-terminal GFP or RFP fusion (Arabidopsis thaliana) (UniProt Q00958)
T1 sequence: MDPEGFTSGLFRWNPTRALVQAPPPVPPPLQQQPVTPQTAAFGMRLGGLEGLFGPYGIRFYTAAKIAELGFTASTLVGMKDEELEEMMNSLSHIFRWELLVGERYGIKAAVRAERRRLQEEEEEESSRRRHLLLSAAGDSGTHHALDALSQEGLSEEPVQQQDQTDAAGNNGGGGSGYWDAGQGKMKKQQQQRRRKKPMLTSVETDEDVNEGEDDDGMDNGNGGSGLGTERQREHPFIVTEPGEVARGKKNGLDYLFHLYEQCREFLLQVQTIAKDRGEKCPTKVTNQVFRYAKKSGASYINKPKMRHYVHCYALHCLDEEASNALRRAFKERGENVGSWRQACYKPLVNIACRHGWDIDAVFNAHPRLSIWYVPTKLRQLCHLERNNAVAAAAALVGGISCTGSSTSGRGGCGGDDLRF

T2: LFY^FIF (LEAFY with the Cys263-to-Tyr exchange of the fif allele), C-terminal GFP or RFP fusion (Arabidopsis thaliana) (UniProt Q00958)
T2 sequence: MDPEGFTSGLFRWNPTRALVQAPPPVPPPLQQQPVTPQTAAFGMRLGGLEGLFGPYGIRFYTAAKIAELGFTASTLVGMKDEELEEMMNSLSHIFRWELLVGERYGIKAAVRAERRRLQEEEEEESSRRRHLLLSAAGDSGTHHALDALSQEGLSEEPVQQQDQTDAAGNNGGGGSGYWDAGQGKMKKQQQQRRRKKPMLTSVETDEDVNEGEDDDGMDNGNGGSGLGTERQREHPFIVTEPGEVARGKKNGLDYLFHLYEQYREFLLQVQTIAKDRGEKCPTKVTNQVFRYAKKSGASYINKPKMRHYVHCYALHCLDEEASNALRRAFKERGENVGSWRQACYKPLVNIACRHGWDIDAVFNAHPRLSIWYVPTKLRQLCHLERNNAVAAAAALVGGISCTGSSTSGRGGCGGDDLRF


Columns and labels:
[1] = target: T1, LEAFY (LFY), wild type, C-terminal GFP or RFP fusion (Arabidopsis thaliana); test: FRET or BRET; in vivo FRET-FLIM; C-terminal GFP fusions (donors) and C-terminal RFP fusions (acceptors) transiently co-expressed in N. benthamiana epidermal leaf cells; GFP fluorescence lifetime measured in the nuclei; donor-only samples as reference
[2] = target: T2, LFY^FIF (LEAFY with the Cys263-to-Tyr exchange of the fif allele), C-terminal GFP or RFP fusion (Arabidopsis thaliana); test: as above

binding [1] | binding [2] | Binder
binds | binds | LEAFY (LFY), wild type, C-terminal GFP or RFP fusion (protein, UniProt Q00958 1-420) MDPEGFTSGLFRWNPTRALVQAPPPVPPPLQQQPVTPQTAAFGMRLGGLEGLFGPYGIRFYTAAKIAELGFTASTLVGMKDEELEEMMNSLSHIFRWELLVGERYGIKAAVRAERRRLQEEEEEESSRRRHLLLSAAGDSGTHHALDALSQEGLSEEPVQQQDQTDAAGNNGGGGSGYWDAGQGKMKKQQQQRRRKKPMLTSVETDEDVNEGEDDDGMDNGNGGSGLGTERQREHPFIVTEPGEVARGKKNGLDYLFHLYEQCREFLLQVQTIAKDRGEKCPTKVTNQVFRYAKKSGASYINKPKMRHYVHCYALHCLDEEASNALRRAFKERGENVGSWRQACYKPLVNIACRHGWDIDAVFNAHPRLSIWYVPTKLRQLCHLERNNAVAAAAALVGGISCTGSSTSGRGGCGGDDLRF
binds | binds | LFY^FIF (LEAFY with the Cys263-to-Tyr exchange of the fif allele), C-terminal GFP or RFP fusion (protein, UniProt Q00958 1-420) MDPEGFTSGLFRWNPTRALVQAPPPVPPPLQQQPVTPQTAAFGMRLGGLEGLFGPYGIRFYTAAKIAELGFTASTLVGMKDEELEEMMNSLSHIFRWELLVGERYGIKAAVRAERRRLQEEEEEESSRRRHLLLSAAGDSGTHHALDALSQEGLSEEPVQQQDQTDAAGNNGGGGSGYWDAGQGKMKKQQQQRRRKKPMLTSVETDEDVNEGEDDDGMDNGNGGSGLGTERQREHPFIVTEPGEVARGKKNGLDYLFHLYEQYREFLLQVQTIAKDRGEKCPTKVTNQVFRYAKKSGASYINKPKMRHYVHCYALHCLDEEASNALRRAFKERGENVGSWRQACYKPLVNIACRHGWDIDAVFNAHPRLSIWYVPTKLRQLCHLERNNAVAAAAALVGGISCTGSSTSGRGGCGGDDLRF
